From publication PMC10711550
Results are given in words; binding and its absence hold for the method and conditions named. Some entries that bind do so weakly or less than the wild type.

Chains of the proteins cited; added tags and fusions are not shown. Residues count along the entry.
DNA-binding domain of SOX2 (aa 39-127) (P48431, residues 39-127): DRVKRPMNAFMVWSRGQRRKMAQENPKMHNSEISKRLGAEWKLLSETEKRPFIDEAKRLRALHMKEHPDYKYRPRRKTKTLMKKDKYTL
C-terminal domain of SOX2 (aa 150-317) (P48431, residues 150-317): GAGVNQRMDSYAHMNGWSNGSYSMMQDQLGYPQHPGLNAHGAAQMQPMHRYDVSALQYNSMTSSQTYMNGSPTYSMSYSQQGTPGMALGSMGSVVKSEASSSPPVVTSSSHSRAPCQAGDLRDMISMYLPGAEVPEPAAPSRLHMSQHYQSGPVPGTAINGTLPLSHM
p300 KIX domain (aa 566-646) (Q09472, residues 566-646): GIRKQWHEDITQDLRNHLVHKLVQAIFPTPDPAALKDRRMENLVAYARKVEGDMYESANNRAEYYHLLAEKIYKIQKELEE
p300 bromodomain (aa 1067-1139) (Q09472, residues 1067-1139): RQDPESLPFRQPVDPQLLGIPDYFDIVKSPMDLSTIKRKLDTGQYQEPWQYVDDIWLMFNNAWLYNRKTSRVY

Key:
[1] = target: DNA-binding domain of SOX2 (aa 39-127) (human) (UniProt P48431); assay: BLI; SOX2DBD or SOX2CTD with p300KIX or p300BD; who was immobilised is not stated (Supplementary Figure 6C, Supplementary Table 3); both purified
[2] = target: C-terminal domain of SOX2 (aa 150-317) (human) (UniProt P48431); assay: as above

| binding [1] | binding [2] | Substance |
| --- | --- | --- |
| binds | binds weakly | p300 KIX domain (aa 566-646) (from UniProt Q09472 566-646) (domain or fragment) |
| binds weakly | binds weakly | p300 bromodomain (aa 1067-1139) (from UniProt Q09472 1067-1139) (domain or fragment) |
